Experimental findings from patent US20220153852A1 (IBIO, published 2022) are described below.

Sequences of proteins named here, by UniProt entry; tags and fusion partners are left off. A change or cut given only in a name is not applied to a line headed by its entry. A line that says so, or that is headed by a name, gives the form on record, which may keep a tag or linker.
recombinant cynomolgus monkey (cyno) CD25 (H6WS54, form named): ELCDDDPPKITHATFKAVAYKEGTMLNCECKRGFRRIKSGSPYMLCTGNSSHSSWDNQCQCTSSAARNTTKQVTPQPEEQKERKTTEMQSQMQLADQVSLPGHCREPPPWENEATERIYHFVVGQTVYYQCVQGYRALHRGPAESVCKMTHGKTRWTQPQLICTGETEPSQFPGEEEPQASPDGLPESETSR

Results are given in words; binding and its absence hold for the method and conditions named. Some results given as binding are weak or reduced against the parent protein; the word gives no strength.

Experiment in all cases: ELISA
In experiment [1] the target is T1, human CD25 (ELISA antigen) (human, UniProt P01589 22-213, limits assumed).
T1 construct: The ELISA protocol is described only for cyno CD25; the human antigen's construct is not described
T1 sequence (looked up): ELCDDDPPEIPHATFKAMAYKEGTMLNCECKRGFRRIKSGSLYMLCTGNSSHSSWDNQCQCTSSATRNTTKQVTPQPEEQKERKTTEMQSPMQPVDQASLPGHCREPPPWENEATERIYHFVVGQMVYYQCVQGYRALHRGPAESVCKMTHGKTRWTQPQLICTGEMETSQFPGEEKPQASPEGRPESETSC

For experiment [2], the target named is recombinant cynomolgus monkey (cyno) CD25 (cynomolgus monkey) (UniProt H6WS54).
For experiment [3], the target named is human CD25 (ELISA antigen) (human) (UniProt P01589).

B1: hD11-H3-L2 (hD11-H3h-L2) (antibody, V domains shown)
VH: QVQLVQSGAEVKKPGASLKISCKGSGYTFTDYAMHWVRQAPGQGLEWIGVISTYSGDAIYAQKFQGRATMTVDTSTSTAYLELSSLRSEDTAVYYCARGVTFDYWGQGTTVTVSS
VL: DIQMTQSPSSLSASVGDRVTITCRASQDISNYLEWYQQKPGKAPKLLVYNAKTLAEGVPSRFSGSGSGTDFTLTISSLQPEDFGTYYCQHHYDTPYTFGQGTKLEIK
As to B1, the binding entry in experiment [1] and in experiment [2] was “binds” each time.

B2: hD11-H1-L2 (antibody, V domains shown)
VH: QVQLVQSGAEVKKPGASVKVSCKASGYTFTDYAMHWVRQAPGQGLEWMGVISTYSGDAIYAQKFQGRVTMTRDTSTSTVYMELSSLRSEDTAVYYCARGVTFDYWGQGTTVTVSS
VL: DIQMTQSPSSLSASVGDRVTITCRASQDISNYLEWYQQKPGKAPKLLVYNAKTLAEGVPSRFSGSGSGTDFTLTISSLQPEDFGTYYCQHHYDTPYTFGQGTKLEIK
notes: Humanized variant of D11 (parental clone carries human IgG1)
As to B2, the binding result in experiment [3] and in experiment [2] was “binds” in each case.
